This is one part of the list. Most entries show no effect beyond the scatter of the controls.

Amino acid sequences for entries named in this document (tags omitted). A change or cut given only in a name is not applied to a line headed by its entry.
UniProt Q9Y285: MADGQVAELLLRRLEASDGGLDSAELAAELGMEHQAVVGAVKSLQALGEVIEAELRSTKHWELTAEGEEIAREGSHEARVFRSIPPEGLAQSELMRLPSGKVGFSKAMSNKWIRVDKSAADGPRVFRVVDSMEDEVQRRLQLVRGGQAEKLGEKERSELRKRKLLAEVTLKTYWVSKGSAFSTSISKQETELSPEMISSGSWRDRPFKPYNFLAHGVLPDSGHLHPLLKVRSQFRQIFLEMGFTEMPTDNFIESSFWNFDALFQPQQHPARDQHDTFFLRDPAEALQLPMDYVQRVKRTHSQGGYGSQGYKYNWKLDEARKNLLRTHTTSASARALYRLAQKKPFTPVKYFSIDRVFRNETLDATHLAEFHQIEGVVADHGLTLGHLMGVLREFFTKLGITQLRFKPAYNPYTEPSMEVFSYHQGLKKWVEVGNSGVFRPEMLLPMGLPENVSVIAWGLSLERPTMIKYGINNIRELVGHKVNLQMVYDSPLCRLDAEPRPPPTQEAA
UniProt Q9Y2Y0: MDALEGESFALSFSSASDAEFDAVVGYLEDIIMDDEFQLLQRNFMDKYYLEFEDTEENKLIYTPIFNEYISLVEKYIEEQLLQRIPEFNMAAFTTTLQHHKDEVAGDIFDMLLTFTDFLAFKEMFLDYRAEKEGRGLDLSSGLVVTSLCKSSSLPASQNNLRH
UniProt Q9UKV3: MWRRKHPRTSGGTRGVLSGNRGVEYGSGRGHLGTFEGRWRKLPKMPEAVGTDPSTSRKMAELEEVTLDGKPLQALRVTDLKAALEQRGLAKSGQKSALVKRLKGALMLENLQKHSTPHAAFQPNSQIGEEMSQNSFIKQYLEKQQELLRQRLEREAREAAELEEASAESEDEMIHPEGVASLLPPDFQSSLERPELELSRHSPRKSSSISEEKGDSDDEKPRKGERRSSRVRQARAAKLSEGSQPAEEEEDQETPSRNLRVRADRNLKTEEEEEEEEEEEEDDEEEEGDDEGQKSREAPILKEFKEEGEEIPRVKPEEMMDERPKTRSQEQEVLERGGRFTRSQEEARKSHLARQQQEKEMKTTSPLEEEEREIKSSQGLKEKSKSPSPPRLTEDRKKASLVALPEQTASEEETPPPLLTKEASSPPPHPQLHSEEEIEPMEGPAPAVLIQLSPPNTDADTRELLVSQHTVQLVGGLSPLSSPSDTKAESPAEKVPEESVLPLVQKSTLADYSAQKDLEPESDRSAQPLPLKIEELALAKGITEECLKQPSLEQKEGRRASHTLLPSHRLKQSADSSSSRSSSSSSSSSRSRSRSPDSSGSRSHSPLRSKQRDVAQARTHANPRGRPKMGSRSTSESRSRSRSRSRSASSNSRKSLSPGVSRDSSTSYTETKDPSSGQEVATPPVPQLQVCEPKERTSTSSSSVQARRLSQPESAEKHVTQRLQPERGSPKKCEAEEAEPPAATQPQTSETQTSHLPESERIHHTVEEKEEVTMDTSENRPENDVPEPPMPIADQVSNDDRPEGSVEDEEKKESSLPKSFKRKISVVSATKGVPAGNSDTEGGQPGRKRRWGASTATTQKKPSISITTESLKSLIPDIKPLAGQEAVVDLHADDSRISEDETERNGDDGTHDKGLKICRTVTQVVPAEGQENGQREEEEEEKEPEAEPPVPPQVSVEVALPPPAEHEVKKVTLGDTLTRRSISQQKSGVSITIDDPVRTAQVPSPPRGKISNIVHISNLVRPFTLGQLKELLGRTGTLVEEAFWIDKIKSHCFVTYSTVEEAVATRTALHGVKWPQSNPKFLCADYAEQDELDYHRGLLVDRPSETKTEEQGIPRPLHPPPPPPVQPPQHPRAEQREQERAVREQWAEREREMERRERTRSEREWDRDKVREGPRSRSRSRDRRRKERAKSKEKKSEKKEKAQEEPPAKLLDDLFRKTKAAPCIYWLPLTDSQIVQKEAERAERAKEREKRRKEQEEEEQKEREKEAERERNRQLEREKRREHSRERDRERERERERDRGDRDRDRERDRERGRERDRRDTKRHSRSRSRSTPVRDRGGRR
UniProt Q9UPZ9: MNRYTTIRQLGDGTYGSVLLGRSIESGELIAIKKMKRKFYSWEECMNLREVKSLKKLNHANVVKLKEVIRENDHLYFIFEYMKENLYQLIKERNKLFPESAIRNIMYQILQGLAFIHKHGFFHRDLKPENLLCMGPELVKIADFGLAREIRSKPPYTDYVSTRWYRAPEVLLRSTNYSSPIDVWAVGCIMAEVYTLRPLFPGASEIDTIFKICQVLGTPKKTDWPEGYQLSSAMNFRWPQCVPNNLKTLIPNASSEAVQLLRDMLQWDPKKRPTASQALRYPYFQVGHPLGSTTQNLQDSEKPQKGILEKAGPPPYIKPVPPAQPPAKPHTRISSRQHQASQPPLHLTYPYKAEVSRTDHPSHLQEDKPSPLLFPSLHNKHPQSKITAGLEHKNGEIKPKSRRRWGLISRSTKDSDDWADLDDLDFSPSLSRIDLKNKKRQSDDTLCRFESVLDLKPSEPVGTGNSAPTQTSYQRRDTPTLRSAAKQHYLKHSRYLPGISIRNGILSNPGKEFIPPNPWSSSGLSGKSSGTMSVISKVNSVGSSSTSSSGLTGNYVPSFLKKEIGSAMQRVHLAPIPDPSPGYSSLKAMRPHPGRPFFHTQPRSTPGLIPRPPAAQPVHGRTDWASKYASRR
UniProt Q9UKV5, whole entry: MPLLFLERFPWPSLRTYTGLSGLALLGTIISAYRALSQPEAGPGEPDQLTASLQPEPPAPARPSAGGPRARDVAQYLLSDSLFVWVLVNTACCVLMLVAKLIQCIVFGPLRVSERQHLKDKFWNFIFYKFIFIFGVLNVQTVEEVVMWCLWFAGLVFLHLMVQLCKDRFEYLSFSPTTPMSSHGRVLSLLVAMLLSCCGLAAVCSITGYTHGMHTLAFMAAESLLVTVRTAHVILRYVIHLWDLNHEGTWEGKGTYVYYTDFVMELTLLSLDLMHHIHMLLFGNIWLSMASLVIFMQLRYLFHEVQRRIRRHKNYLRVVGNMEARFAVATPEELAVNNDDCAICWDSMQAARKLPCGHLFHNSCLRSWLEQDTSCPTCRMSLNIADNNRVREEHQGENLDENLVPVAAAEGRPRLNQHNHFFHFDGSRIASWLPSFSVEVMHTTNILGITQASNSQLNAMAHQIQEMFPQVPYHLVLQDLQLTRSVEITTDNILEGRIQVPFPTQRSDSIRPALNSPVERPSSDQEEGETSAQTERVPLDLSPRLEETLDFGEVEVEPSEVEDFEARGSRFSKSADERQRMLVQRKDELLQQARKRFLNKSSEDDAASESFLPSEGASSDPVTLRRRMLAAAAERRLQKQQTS
UniProt Q9UNS2: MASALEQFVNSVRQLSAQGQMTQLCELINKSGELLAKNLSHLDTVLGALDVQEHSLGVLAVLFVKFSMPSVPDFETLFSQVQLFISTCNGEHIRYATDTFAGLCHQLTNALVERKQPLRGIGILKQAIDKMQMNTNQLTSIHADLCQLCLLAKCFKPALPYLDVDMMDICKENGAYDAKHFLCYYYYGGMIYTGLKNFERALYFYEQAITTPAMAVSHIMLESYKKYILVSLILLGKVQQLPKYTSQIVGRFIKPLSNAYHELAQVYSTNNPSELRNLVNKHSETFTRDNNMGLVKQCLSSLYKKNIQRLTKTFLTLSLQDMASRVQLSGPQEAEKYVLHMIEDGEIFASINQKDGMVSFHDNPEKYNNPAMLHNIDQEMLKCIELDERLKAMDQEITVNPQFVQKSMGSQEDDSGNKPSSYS
UniProt Q9UPU5: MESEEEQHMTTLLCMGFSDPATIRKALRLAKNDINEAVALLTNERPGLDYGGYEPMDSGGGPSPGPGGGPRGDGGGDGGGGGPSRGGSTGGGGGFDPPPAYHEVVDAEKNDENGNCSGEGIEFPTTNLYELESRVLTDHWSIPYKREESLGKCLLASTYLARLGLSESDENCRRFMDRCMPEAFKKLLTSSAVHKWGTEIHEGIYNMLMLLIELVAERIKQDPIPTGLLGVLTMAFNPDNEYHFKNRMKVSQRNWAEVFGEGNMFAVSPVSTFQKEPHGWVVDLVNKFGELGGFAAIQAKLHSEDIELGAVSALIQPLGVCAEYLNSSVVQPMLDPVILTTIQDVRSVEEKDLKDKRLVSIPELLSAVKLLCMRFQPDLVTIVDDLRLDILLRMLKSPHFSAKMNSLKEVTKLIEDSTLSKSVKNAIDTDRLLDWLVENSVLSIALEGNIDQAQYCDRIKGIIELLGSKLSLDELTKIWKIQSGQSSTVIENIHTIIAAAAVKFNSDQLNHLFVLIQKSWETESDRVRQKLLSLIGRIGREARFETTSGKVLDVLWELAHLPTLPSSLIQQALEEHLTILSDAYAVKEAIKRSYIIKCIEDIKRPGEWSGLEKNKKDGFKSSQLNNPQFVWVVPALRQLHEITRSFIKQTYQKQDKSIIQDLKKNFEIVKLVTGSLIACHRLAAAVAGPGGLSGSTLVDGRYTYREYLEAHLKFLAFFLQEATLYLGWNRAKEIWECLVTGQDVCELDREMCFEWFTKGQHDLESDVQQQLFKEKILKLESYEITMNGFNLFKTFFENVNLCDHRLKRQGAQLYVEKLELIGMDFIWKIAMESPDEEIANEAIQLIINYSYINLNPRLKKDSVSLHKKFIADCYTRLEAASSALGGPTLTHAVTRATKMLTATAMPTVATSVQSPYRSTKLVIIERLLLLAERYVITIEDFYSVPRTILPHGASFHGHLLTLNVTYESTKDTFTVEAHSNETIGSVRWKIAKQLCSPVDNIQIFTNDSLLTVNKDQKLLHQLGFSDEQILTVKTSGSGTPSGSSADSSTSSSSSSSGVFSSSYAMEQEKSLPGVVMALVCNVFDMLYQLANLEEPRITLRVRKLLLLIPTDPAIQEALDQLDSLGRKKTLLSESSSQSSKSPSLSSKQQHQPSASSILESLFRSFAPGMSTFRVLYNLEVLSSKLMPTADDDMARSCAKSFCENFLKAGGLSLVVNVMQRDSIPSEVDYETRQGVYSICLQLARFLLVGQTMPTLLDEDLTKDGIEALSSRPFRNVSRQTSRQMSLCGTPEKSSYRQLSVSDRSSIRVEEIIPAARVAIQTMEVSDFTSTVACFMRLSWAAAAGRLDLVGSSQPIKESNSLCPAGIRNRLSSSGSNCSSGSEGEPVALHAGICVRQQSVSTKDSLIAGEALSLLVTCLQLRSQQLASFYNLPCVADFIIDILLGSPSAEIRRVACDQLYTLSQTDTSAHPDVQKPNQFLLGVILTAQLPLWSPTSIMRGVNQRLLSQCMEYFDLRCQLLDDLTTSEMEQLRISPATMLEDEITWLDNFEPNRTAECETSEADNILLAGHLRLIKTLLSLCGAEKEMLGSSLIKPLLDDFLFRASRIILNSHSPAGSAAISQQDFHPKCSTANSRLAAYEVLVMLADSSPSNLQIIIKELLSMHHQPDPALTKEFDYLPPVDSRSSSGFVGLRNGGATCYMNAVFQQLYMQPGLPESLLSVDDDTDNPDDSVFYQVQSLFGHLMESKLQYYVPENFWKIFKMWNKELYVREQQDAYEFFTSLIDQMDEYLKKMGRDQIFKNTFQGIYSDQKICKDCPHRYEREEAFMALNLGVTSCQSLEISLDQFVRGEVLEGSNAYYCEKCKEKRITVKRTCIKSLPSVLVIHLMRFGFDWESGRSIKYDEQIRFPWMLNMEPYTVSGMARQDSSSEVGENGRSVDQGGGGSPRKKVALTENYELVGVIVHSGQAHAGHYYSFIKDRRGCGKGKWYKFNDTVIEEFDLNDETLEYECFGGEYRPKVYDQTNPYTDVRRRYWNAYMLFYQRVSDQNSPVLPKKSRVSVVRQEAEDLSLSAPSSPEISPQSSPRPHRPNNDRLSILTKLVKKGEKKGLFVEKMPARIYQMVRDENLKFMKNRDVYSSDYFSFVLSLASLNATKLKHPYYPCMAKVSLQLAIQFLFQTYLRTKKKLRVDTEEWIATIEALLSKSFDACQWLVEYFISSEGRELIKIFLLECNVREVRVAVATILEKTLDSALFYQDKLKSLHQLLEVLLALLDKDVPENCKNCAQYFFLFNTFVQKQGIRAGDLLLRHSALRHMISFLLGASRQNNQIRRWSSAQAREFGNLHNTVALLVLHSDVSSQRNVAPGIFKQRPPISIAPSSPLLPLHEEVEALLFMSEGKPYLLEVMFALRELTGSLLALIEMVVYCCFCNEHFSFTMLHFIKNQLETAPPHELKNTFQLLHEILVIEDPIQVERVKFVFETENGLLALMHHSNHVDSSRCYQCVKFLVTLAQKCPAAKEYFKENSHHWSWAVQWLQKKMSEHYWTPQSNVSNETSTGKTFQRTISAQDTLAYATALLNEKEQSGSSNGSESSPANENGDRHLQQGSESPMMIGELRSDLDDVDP
UniProt Q9Y2Y6: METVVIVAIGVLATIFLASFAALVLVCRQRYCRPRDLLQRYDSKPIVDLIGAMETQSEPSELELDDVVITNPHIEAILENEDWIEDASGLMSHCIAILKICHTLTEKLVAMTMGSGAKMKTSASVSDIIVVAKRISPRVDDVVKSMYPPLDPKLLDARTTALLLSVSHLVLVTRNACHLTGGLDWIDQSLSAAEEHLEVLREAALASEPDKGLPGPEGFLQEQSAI

Compound in the assay: CN[C@@H]1C[C@H]2O[C@@](C)([C@@H]1OC)n1c3ccccc3c3c4c(c5c6ccccc6n2c5c31)C(=O)NC4 [staurosporine]
As to the kind of experiment: log2 fold change of tryptic peptide abundance, ligand vs vehicle (limited proteolysis) (log2 ratio); higher = more trypsin-susceptible (destabilized). Particulars: ligand concentration: 20 uM; sample: K562 cleared lysate; digestion: 4 min, 22 C (HT-PELSA RT4min, Orbitrap Astral).
Consider “CDC42EP3 (peptide sequence: LSCEPVMEEK, peptide start residue: 143) (UniProt Q9UKI2)”, for which the log2 fold change worked out at 0.329.

With “FARSA (peptide sequence: LLAEVTLK, peptide start residue: 164) (UniProt Q9Y285)”, the log2 fold change is -0.216. For “ANKRD50 (peptide sequence: SSGCFLYLER, peptide start residue: 299) (UniProt Q9ULJ7)” the value was -0.608; for “ARL2BP (peptide sequence: SSSLPASQNNLRH, peptide start residue: 151) (UniProt Q9Y2Y0)”, 0.0847. For “ACIN1 (peptide sequence: TGTLVEEAFWIDKIK, peptide start residue: 1035) (UniProt Q9UKV3)” the value was 0.737; for “ICK (peptide sequence: LNHANVVK, peptide start residue: 68) (UniProt Q9UPZ9)”, -0.411. Consider “NOP58 (peptide sequence: MMAIAPNVTVMVGELVGAR, peptide start residue: 279) (UniProt Q9Y2X3)”, for which the log2 fold change is -0.644. For “ISY1 (peptide sequence: YASETLQAQSEEAR, peptide start residue: 267) (UniProt Q9ULR0)” the value was -0.504. Turning to “AMFR (peptide sequence: KDELLQQAR, peptide start residue: 586) (UniProt Q9UKV5)”, the log2 fold change is -0.699. Turning to “SSX2IP (peptide sequence: VHLEGFNDEDVISR, peptide start residue: 363) (UniProt Q9Y2D8)”, the log2 fold change is -0.287. For “STXBP5L (peptide sequence: HAHELMLK, peptide start residue: 1170) (UniProt Q9Y2K9)” the value was 0.358; for “COPS3 (peptide sequence: QLSAQGQMTQLCELINK, peptide start residue: 14) (UniProt Q9UNS2)”, 0.7; for “RAB23 (peptide sequence: TIGVDFLER, peptide start residue: 41) (UniProt Q9ULC3)”, 0.203. For “TRIM33 (peptide sequence: LLPCLHSFCLRCLPEPER, peptide start residue: 142) (UniProt Q9UPN9)”, the log2 fold change was -0.629. With “KLHL20 (peptide sequence: CTNIRPGETGMDVTSR, peptide start residue: 9) (UniProt Q9Y2M5)”, the log2 fold change worked out at 0.604.

Turning to “MINPP1 (peptide sequence: CSLLEPR, peptide start residue: 30) (UniProt Q9UNW1)”, the log2 fold change was -0.441. For “ZMIZ1 (peptide sequence: SDLHIKDDPDGIPSKR, peptide start residue: 829) (UniProt Q9ULJ6)” the value was 0.524. On to “CASP8AP2 (peptide sequence: DVFLPNSAHSTSK, peptide start residue: 888) (UniProt Q9UKL3)”, for which the log2 fold change is -0.426. Consider “USP24 (peptide sequence: LMPTADDDMAR, peptide start residue: 1185) (UniProt Q9UPU5)”, for which the log2 fold change stood at 0.397.

With “VPS4A (peptide sequence: FSEDFGQES, peptide start residue: 429) (UniProt Q9UN37)”, the log2 fold change is -0.348. The result for “UniProt Q9UNQ2 (peptide sequence: CAILMFQR, peptide start residue: 150)” reads -0.253; that for “POLR3K (peptide sequence: CHRFACNTCPYVHNITR, peptide start residue: 20) (UniProt Q9Y2Y1)”, 0.314; that for “EXOSC1 (peptide sequence: ETESQLLPDVGAIVTCK, peptide start residue: 58) (UniProt Q9Y3B2)”, 0.108. In the case of “RALY (peptide sequence: LQASNVTNKNDPK, peptide start residue: 5) (UniProt Q9UKM9)”, the log2 fold change was -0.206.

Take “WDR3 (peptide sequence: NLLVTSGKDTMVK, peptide start residue: 162) (UniProt Q9UNX4)”: the log2 fold change is -0.124. The result for “LRCH1 (peptide sequence: NLESIDPQFTIRR, peptide start residue: 559) (UniProt Q9Y2L9)” reads 0.272. “CDYL (peptide sequence: NSQLFAASQK, peptide start residue: 163) (UniProt Q9Y232)”: the log2 fold change is -0.168. The result for “TMEM98 (peptide sequence: LVAMTMGSGAK, peptide start residue: 108) (UniProt Q9Y2Y6)” reads 0.11.
